Test [1] concerns the target Smad4 (human (endogenous in IVD tissue of a patient)) (UniProt Q13485). The experiment in a line: co-IP; IP products of anti-Smad4 and IgG from degenerative IVD tissue (Pfirrmann grade IV) lysate; immunoblots for Smad4, pSmad1/5/8 and HDAC1.
The target of test [2] is 2×Flag-Smad4 (UniProt Q13485). The experiment in a line: co-IP; HNPC cells co-transfected with pCDNA3-2×Flag-Smad4 and pCDNA3-Myc-HDCA1 (and empty vectors), 48 h; IP with anti-Flag agarose and anti-Myc agarose; blots with anti-Flag and anti-Myc.

Chains of the proteins cited; added tags and fusions are not shown.
UniProt Q13485: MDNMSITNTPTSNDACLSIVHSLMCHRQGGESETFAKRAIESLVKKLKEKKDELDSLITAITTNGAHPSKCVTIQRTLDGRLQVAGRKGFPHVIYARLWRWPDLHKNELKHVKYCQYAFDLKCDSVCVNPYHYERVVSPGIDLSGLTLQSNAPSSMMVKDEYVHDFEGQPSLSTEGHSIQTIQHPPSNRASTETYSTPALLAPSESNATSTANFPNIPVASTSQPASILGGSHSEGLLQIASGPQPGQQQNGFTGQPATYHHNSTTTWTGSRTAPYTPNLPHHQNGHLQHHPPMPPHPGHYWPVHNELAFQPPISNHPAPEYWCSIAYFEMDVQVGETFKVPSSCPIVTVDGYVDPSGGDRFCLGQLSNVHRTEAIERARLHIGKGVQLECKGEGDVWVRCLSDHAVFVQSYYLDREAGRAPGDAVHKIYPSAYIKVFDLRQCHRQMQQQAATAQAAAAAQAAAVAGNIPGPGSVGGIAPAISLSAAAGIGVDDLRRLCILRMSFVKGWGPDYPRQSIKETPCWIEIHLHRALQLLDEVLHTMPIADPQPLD
UniProt Q13547: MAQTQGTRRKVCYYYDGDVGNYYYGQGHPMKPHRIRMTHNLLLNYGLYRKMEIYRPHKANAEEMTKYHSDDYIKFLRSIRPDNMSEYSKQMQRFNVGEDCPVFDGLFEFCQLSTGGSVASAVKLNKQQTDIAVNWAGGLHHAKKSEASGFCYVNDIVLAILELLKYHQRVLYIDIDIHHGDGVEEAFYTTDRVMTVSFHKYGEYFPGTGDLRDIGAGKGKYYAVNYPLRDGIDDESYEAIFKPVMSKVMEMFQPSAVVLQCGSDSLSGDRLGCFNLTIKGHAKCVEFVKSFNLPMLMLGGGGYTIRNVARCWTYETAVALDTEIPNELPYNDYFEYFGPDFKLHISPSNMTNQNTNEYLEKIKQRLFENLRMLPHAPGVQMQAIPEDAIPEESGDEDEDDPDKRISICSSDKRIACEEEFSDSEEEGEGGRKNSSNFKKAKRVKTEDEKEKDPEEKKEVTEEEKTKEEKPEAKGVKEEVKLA

Our source for the binding values is paper PMC8241732.

Results are given in words; binding and its absence hold for the method and conditions named. In cells and extracts the contact can be indirect. Some results given as binding are weak or reduced against the parent protein; the word gives no strength.

With “HDAC1 (histone deacetylase 1) (from UniProt Q13547 1-482)”, the binding entry in test [1] is given as “binds”.
With Myc-HDAC1 (from UniProt Q13547 1-482), in test [2], the binding result was “binds”.
